Source: PubChem BioAssay AID493014 (National Center for Advancing Translational Sciences (NCATS), 2011)
The other results are listed elsewhere or left out. These are further read-outs of the screen, such as a control signal, another cell line or another target. No call is given for them. The list favours compounds with an active or inconclusive main result. Potencies come from curve fits of mixed quality, noted in brackets.

Test: qHTS Assay to Find Inhibitors of Chronic Active B-Cell Receptor Signaling
Conditions: ABC-DLBCL IkBa-CBG/CBR reporter, luminescence ratio (green luciferase fused to IkBa over red control in TMD8 lymphoma cells), 4 h
Method in brief: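 Compounds up to 46 uM were incubated four hours with TMD8 cells whose green CBG68 luciferase is fused to IkappaBalpha; red CBR luminescence normalised the signal, and concentration-effect curves were fitted to fusion, red and ratio data.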

[1] = measured here: CBR red luminescence, cell number
[2] = measured here: IkBa-CBG green luminescence

| Compound | AC50 [1] | AC50 [2] |
| --- | --- | --- |
| Fc1ccccc1-c1nc2ccccc2[nH]1 | 2.51 µM [falling, full curve] | – |
| O=[N+]([O-])c1cc(Br)c(Nc2ccccc2)c([N+](=O)[O-])c1 | – | 35.5 µM [falling, single point] |
| COc1ccc(N(CC(=O)Nc2ccccc2F)S(=O)(=O)c2ccc(C)c([N+](=O)[O-])c2)cc1 | 11.2 µM [falling, single point] | – |
| COc1ccc(C2CC3(CC(C)(C)NC(=S)N3)Oc3cc(O)cc(C)c32)cc1 (configuration not stated) | 20.6 µM [falling, partial curve] | 20.6 µM [rising, partial curve, poor fit] |
| CCc1ccc(OCc2nnc(SCc3ccc(C(=O)O)cc3)o2)cc1 | 0.447 µM [falling, partial curve, poor fit] | – |
| COC(=O)Cn1c(=O)c2c(nc(Br)n2Cc2ccccc2Cl)n(C)c1=O | 0.398 µM [falling, full curve, poor fit] | – |
| COc1ccccc1N(C)S(=O)(=O)c1ccc(Cl)c(C(=O)NCc2ccco2)c1 | 29.1 µM [falling, single point] | – |
| COc1ccc(C)cc1NC(=O)c1cccc(-c2ccc(OC(C)=O)cc2)c1 | 7.08 µM [falling, full curve, poor fit] | – |
| CCCCn1c(O)c(N=Nc2ccccn2)c2ccccc21 | 5.8 µM [rising, full curve] | – |
| Cc1ccc(C2(C)NC(=O)N(CC(=O)NC(C)c3ccccc3)C2=O)cc1 (configuration not stated) | 6.31 µM [falling, single point] | – |
| COc1cccc(CN2C(=O)CCC2(C)C(=O)NC2CCCC2)c1 (configuration not stated) | 2.59 µM [rising, full curve] | – |
| C=CCNC(=O)/C(C#N)=C/c1c(N(Cc2ccccc2)Cc2ccccc2)nc2ccccn2c1=O | 29.1 µM [falling, single point] | – |
| CCOc1cc(N2CCOCC2)c(OCC)cc1NC(=O)COC(=O)CCOc1cc(C)ccc1C | 29.1 µM [falling, single point] | – |
| CCCC(C)C(=O)N(Cc1ccccc1)c1ccccn1 (configuration not stated) | 10.3 µM [rising, partial curve, poor fit] | – |
| C=CCOC(=O)C(C#N)c1nc2ccccc2nc1N1CCCC1 (configuration not stated) | 6.51 µM [rising, single point] | – |
| CCCCC(O)(CCCC)C(=O)NN(C(=O)CCl)c1ccccc1 | 6.51 µM [falling, partial curve] | – |
| Cc1cc(O)c(-c2cc(C(=O)Nc3ccc(S(=O)(=O)N4CCOCC4)cc3)[nH]n2)cc1C | 16.4 µM [falling, single point] | – |
| COc1ccccc1N1CCN(C(CNS(C)(=O)=O)c2cccnc2)CC1 (configuration not stated) | 7.08 µM [falling, partial curve] | – |
| O=C1CN(c2ccccc2F)C(=O)CN1c1ccccc1F | 6.51 µM [rising, single point] | – |
| CCN(CCCNC(=O)Cn1ncc2c(=O)oc3ccccc3c21)c1cccc(C)c1 | 20 µM [rising, single point] | – |
| O=C(/C=C/c1ccc([N+](=O)[O-])cc1)N1CCN(S(=O)(=O)c2ccccc2)CC1 | 2.59 µM [rising, partial curve] | – |
| Cc1c(C(=O)N/N=C/c2ccoc2)cccc1[N+](=O)[O-] | 3.55 µM [falling, single point] | – |

Look-ups from the entries so far:
Entry of CCc1ccc(OCc2nnc(SCc3ccc(C(=O)O)cc3)o2)cc1 under AC50 [1]: 0.447 µM [falling, partial curve, poor fit]
Entry of CCCCn1c(O)c(N=Nc2ccccn2)c2ccccc21 under AC50 [1]: 5.8 µM [rising, full curve]
Entry of COc1ccc(N(CC(=O)Nc2ccccc2F)S(=O)(=O)c2ccc(C)c([N+](=O)[O-])c2)cc1 under AC50 [1]: 11.2 µM [falling, single point]
Entry of O=[N+]([O-])c1cc(Br)c(Nc2ccccc2)c([N+](=O)[O-])c1 under AC50 [2]: 35.5 µM [falling, single point]

(listing goes on)

| Compound | AC50 [1] | AC50 [2] |
| --- | --- | --- |
| Cc1ccc(-c2nc(C(=O)NCC3CCCO3)cc3c2[nH]c2ccccc23)cc1 (configuration not stated) | 3.98 µM [falling, full curve] | – |
| O=C(CCS(=O)(=O)c1ccc(Cl)cc1)N1CCN(c2ccccc2F)CC1 | 4.47 µM [falling, full curve, poor fit] | – |
| O=C(Cn1c(=O)n(Cc2ccco2)c(=O)c2ccccc21)Nc1cccc(Cl)c1 | 13 µM [falling, partial curve] | – |
| CCN(CC(=O)Nc1c(F)cccc1F)C(=O)/C=C/c1ccc(C)cc1 | 5.8 µM [falling, partial curve] | – |
| CCN1CCc2nc(NC(=O)Cc3ccc4c(c3)OCCO4)sc2C1 | 17.8 µM [rising, single point] | – |
| CCOC(=O)c1sc(N)c(C(N)=O)c1C | 22.4 µM [falling, partial curve, poor fit] | – |
| CCCn1c(CCc2ccccc2)nnc1SCC(=O)N1CCCC1 | 29.1 µM [rising, single point] | – |
| Cc1ccc(NC(=O)Cc2ccsc2)cc1Cl | 10 µM [rising, partial curve] | – |
| Cc1c(NC(=O)c2ccccc2NC(=O)COc2ccccc2)cccc1C(=O)O | 14.1 µM [falling, single point] | – |
| S=C(NCc1ccccc1)NCc1ccc2c(c1)OCO2 | 6.51 µM [rising, single point] | – |
| CCN(C(=O)c1cc2ccccc2oc1=O)c1cccc(C)c1 | 29.1 µM [falling, single point] | – |
| COc1ccc(CN(C)S(=O)(=O)c2c(C)noc2C)cc1OC | 29.1 µM [rising, single point] | – |
| NS(=O)(=O)c1ccc(CCNC(=O)CN2C(=O)c3ccccc3S2(=O)=O)cc1 | 11.6 µM [rising, partial curve, poor fit] | – |
| CCCCn1c(N)c(N(CCC(C)C)C(=O)C2CC(=O)N(Cc3ccc(C)cc3)C2)c(=O)[nH]c1=O (configuration not stated) | 20.6 µM [falling, partial curve, poor fit] | – |
| COc1ccccc1N1CCN(CCc2n[nH]c(=S)n2-c2ccccc2)CC1 | 0.731 µM [falling, full curve, poor fit] | – |
| O=C(CCC(=O)N1CCc2ccccc2C1)NCCc1ccc(Cl)cc1 | 11.2 µM [rising, partial curve, poor fit] | – |
| CCCc1cc(NCC2CCCO2)n2c(nc3ccccc32)c1C#N (configuration not stated) | – | 25.9 µM [rising, partial curve, poor fit] |
| O=C(Cc1ccc(Br)cc1)Nc1nc2ccccc2[nH]1 | 25.1 µM [falling, single point] | – |
| CCc1ccc(OC)c(S(=O)(=O)Nc2ccc(Cc3ccncc3)cc2)c1 | 35.5 µM [falling, single point] | – |
| CCN(CC1COc2ccccc2O1)C(=S)NC1CC2CCC1C2 (configuration not stated) | 3.55 µM [rising, partial curve, poor fit] | – |
| CCCC/C(C)=N/NC(=O)c1cn(-c2ccccc2)nc1-c1ccccc1 | 25.9 µM [falling, single point] | – |
| CCc1sc(C(=O)Nc2ncccc2C)cc1C | 4.47 µM [falling, full curve] | – |

| Compound | AC50 [1] | AC50 [2] |
| --- | --- | --- |
| CCN(CC)S(=O)(=O)c1ccc(/C=C/C(=O)Nc2cccc(F)c2)cc1 | 7.31 µM [falling, partial curve, poor fit] | – |
| NC(=O)c1ccccc1O | 18.4 µM [rising, partial curve, poor fit] | – |
| CC1CCCC(NC(=O)CSc2ncccc2C(=O)O)C1C (configuration not stated) | 6.51 µM [falling, single point] | – |
| O=c1[nH]c(C(F)(F)F)nc2ccc3ccccc3c12 | 11.2 µM [falling, partial curve, poor fit] | – |
| CCOc1ccc(CCNC(=O)CSc2nn(-c3ccc(C)c(Cl)c3)c(=S)s2)cc1OCC | 29.1 µM [rising, single point] | – |
| O=C(NCC1(c2ccccc2)CCCC1)c1ccc(Br)cc1 | 29.1 µM [rising, single point] | – |
| Nc1nnc(SCC(=O)Nc2ccc(N3CCOCC3)c(Cl)c2)s1 | 35.5 µM [falling, single point] | – |
| Cc1ccc(C(=O)/C=C/NCc2ccc(F)cc2)cc1 | 7.31 µM [rising, partial curve, poor fit] | – |
| COc1cccc(NC2=NC3(CCCCC3)N=C(N)N2)c1 | 20.6 µM [rising, single point] | – |
| O=C(CSC(=S)N1CCCCC1)c1ccccc1 | 35.5 µM [falling, single point] | – |
| CN1C(=O)c2ccccc2Sc2ccc(NC(=O)NC3CC3)cc21 | 8.91 µM [rising, partial curve, poor fit] | – |
| OC(CN1CCN(c2ccccc2)CC1)c1c[nH]c2ccccc12 (configuration not stated) | 8.91 µM [falling, partial curve, poor fit] | – |
| COc1ccc2nc(NCc3cccnc3)sc2c1 | 22.4 µM [falling, single point] | – |
| COc1ccccc1C(=O)Nc1ccccn1 | 29.1 µM [falling, single point] | – |
| O=C(O)/C=C/C(=O)Nc1ccc(OC(F)F)cc1 | 3.98 µM [rising, single point] | – |
| Cc1nc2cc(NC(=O)c3cccc(S(C)(=O)=O)c3)ccc2o1 | 17.8 µM [falling, partial curve] | – |
| N#Cc1nccnc1S(=O)(=O)c1cccs1 | 5.01 µM [falling, partial curve] | – |
| CNC(=O)c1ccc(Nc2nnc(-c3ccc(C(N)=O)cc3)c3ccccc23)cc1 | 3.98 µM [rising, full curve, poor fit] | – |
| Cc1nnc(-c2ccc(Oc3ccc(Cl)cc3)c([N+](=O)[O-])c2)o1 | 29.1 µM [falling, partial curve, poor fit] | – |
| CCS(=O)(=O)Nc1ccc(-c2nnc(SCC(=O)OC)o2)cc1 | 20 µM [falling, single point] | – |
| CCC(=O)N(CCC1(C(C)C)CCOC(C)(C)C1)Cc1ccco1 (configuration not stated) | 16.4 µM [falling, single point] | – |
| Cc1cc(-c2cc(-c3ccccc3)on2)nc(NCC2CC2)n1 | 0.398 µM [rising, full curve, poor fit] | – |
